Test results as given in PMC5570905, “Phytochrome-interacting factors directly suppress MIR156 expression to enhance shade-avoidance syndrome in Arabidopsis”.
No constants are given. Whether binding was seen depends on the method and setting.

How the values were obtained:
Assay in all cases: two-hybrid; pGADT7-PIFs and pGBKT7-SPLs co-transformed into yeast strain AH109; transformants selected on SD/-Ura/-Leu, interaction tested on SD/-Ura/-Leu/-His/-Ade
[1] = biological target: T1, SQUAMOSA-PROMOTER BINDING PROTEIN-LIKE 10 (Arabidopsis thaliana) (UniProt Q8S9L0)
T1 sequence: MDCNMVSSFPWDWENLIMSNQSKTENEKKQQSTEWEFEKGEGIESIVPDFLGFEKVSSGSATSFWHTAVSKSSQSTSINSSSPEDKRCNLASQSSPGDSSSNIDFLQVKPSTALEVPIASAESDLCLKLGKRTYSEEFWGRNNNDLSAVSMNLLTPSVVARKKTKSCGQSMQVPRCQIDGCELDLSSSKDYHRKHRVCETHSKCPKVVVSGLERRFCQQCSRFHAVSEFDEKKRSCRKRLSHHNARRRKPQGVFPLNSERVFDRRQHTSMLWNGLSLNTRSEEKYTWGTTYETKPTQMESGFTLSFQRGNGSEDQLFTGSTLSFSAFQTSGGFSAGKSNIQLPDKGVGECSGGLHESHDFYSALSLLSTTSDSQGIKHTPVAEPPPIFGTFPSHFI

[2] = biological target: T2, SQUAMOSA-PROMOTER BINDING PROTEIN-LIKE 3 (Arabidopsis thaliana) (UniProt P93015)
T2 sequence: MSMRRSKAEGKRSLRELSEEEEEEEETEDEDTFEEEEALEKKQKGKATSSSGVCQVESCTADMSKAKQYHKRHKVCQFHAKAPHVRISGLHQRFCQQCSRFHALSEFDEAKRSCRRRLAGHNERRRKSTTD

[3] = biological target: T3, SQUAMOSA-PROMOTER BINDING PROTEIN-LIKE 9 (Arabidopsis thaliana) (UniProt Q700W2)
T3 sequence: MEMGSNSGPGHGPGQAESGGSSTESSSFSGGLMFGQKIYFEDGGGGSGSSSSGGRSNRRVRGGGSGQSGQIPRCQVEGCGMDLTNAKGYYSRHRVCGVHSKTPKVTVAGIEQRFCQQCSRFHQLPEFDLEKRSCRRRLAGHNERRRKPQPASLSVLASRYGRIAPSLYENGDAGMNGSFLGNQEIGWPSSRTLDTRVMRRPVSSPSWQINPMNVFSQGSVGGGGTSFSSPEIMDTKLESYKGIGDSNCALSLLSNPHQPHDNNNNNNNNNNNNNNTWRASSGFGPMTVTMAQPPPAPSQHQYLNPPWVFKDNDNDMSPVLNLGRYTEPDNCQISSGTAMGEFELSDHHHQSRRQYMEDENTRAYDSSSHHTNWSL

[4] = biological target: T4, SQUAMOSA-PROMOTER BINDING PROTEIN-LIKE 2 (Arabidopsis thaliana) (UniProt Q9S840)
T4 sequence: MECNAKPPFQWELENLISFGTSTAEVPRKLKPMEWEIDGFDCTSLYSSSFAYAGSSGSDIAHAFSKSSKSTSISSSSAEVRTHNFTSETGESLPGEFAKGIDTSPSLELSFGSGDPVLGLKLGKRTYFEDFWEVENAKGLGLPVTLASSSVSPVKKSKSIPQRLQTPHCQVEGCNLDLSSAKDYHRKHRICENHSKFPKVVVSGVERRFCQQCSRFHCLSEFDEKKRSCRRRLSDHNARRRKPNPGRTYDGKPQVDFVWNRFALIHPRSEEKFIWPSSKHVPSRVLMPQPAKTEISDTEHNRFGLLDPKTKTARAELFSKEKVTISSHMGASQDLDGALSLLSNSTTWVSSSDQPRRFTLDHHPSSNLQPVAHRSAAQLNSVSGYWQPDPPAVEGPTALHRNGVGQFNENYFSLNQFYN

[5] = biological target: T5, SQUAMOSA-PROMOTER BINDING PROTEIN-LIKE 5 (Arabidopsis thaliana) (UniProt Q9S758)
T5 sequence: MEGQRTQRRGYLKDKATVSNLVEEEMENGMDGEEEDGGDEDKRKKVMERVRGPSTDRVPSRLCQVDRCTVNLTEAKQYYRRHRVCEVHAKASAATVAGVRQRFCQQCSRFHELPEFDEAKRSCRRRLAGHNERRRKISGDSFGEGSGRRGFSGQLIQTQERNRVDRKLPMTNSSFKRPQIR

[6] = biological target: T6, SQUAMOSA-PROMOTER BINDING PROTEIN-LIKE 4 (Arabidopsis thaliana) (UniProt Q9S7A9)
T6 sequence: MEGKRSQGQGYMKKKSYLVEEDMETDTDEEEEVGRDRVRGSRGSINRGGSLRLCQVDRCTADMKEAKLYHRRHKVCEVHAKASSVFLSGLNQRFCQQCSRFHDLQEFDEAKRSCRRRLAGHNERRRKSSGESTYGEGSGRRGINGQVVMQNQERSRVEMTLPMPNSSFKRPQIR

[7] = biological target: T7, SQUAMOSA-PROMOTER BINDING PROTEIN-LIKE 15 (Arabidopsis thaliana) (UniProt Q9M2Q6)
T7 sequence: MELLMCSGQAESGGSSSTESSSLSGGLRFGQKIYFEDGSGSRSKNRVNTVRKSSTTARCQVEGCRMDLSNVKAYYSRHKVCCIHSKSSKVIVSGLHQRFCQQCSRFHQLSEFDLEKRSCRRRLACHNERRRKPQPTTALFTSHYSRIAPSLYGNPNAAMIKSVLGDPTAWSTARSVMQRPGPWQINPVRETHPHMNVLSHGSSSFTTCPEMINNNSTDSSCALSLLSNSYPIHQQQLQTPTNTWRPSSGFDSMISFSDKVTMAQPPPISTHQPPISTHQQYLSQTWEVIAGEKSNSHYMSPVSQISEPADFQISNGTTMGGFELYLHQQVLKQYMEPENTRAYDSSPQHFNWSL

[8] = biological target: T8, SQUAMOSA-PROMOTER BINDING PROTEIN-LIKE 11 (Arabidopsis thaliana) (UniProt Q9FZK0)
T8 sequence: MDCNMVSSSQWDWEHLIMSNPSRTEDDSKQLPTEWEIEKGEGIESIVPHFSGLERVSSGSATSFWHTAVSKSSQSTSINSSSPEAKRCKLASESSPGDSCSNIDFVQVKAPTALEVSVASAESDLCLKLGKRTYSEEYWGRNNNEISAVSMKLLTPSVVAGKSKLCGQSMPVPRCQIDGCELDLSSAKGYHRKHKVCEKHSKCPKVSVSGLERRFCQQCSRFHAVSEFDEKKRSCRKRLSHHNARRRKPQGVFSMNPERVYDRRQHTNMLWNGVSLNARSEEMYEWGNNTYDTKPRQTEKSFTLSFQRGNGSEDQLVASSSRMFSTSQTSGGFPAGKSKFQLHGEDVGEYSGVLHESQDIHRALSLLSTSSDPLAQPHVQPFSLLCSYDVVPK

Measured: binding

B1: PHYTOCHROME-… FACTOR 1 (protein, UniProt Q8GZM7 1-478)
chain: MHHFVPDFDTDDDYVNNHNSSLNHLPRKSITTMGEDDDLMELLWQNGQVVVQNQRLHTKKPSSSPPKLLPSMDPQQQPSSDQNLFIQEDEMTSWLHYPLRDDDFCSDLLFSAAPTATATATVSQVTAARPPVSSTNESRPPVRNFMNFSRLRGDFNNGRGGESGPLLSKAVVRESTQVSPSATPSAAASESGLTRRTDGTDSSAVAGGGAYNRKGKAVAMTAPAIEITGTSSSVVSKSEIEPEKTNVDDRKRKEREATTTDETESRSEETKQARVSTTSTKRSRAAEVHNLSERKRRDRINERMKALQELIPRCNKSDKASMLDEAIEYMKSLQLQIQMMSMGCGMMPMMYPGMQQYMPHMAMGMGMNQPIPPPSFMPFPNMLAAQRPLPTQTHMAGSGPQYPVHASDPSRVFVPNQQYDPTSGQPQYPAGYTDPYQQFRGLHPTQPPQFQNQATSYPSSSRVSSSKESEDHGNHTTG
no binding: all assays above

B2: PHYTOCHROME-… FACTOR 5 (protein, UniProt Q84LH8 1-444)
chain: MEQVFADWNFEDNFHMSTNKRSIRPEDELVELLWRDGQVVLQSQARREPSVQVQTHKQETLRKPNNIFLDNQETVQKPNYAALDDQETVSWIQYPPDDVIDPFESEFSSHFFSSIDHLGGPEKPRTIEETVKHEAQAMAPPKFRSSVITVGPSHCGSNQSTNIHQATTLPVSMSDRSKNVEERLDTSSGGSSGCSYGRNNKETVSGTSVTIDRKRKHVMDADQESVSQSDIGLTSTDDQTMGNKSSQRSGSTRRSRAAEVHNLSERRRRDRINERMKALQELIPHCSRTDKASILDEAIDYLKSLQMQLQVMWMGSGMAAAAAAAASPMMFPGVQSSPYINQMAMQSQMQLSQFPVMNRSAPQNHPGLVCQNPVQLQLQAQNQILSEQLARYMGGIPQMPPAGNQMQTVQQQPADMLGFGSPAGPQSQLSAPATTDSLHMGKIG
no binding: all assays above
